# This is one part of the list. The data scatter; read single values as rough.
# Test system: T1, NCOR2 C2436
# T1 sequence (whole entry): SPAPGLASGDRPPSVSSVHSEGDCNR
# Assay: log2 mean competition ratio of IA-DTB cysteine labelling (DMSO/compound) (log2 ratio); higher = stronger cysteine engagement by compound
# Details: 50 µM; treatment time: 4 h; cell line lysate: HEK293T
# Experimental: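 IA-DTB competitive cysteine chemoproteomics in HEK293T RIPA lysate. Lysates were treated with compound 29 or 30 at 50 or 200 µM for 4 h, then IA-DTB (500 µM, 1 h), trypsin-digested, NeutrAvidin-enriched and analysed by diaPASEF. Competition ratio = intensity DMSO / intensity compound (n=4 treated, n=64 DMSO); binding: mean log2 CR ≥ 1 and p ≤ 0.05 plus QC filters. Target is the cysteine site.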
row,SMILES,log2 mean competition ratio
1,O=C(CCl)N[C@H]1CCCc2ccccc21,0.0199
2,O=C(CCl)N[C@@H]1CCCc2ccccc21,-0.0794

# Same assay, conditions: 200 µM; treatment time: 4 h; cell line lysate: HEK293T
row,SMILES,log2 mean competition ratio
1,O=C(CCl)N[C@H]1CCCc2ccccc21,0.145
2,O=C(CCl)N[C@@H]1CCCc2ccccc21,0.317

# Source: the supplement of paper PMC11732987, “Enantioselective OTUD7B fragment discovery through chemoproteomics screening and high-throughput optimisation” (Communications Chemistry, 2025)
